# Percent effect of library compounds

By UniProt entry, the sequences of proteins in these tests, tags left out. Residues count along the entry.
UniProt P9WNZ1, whole entry: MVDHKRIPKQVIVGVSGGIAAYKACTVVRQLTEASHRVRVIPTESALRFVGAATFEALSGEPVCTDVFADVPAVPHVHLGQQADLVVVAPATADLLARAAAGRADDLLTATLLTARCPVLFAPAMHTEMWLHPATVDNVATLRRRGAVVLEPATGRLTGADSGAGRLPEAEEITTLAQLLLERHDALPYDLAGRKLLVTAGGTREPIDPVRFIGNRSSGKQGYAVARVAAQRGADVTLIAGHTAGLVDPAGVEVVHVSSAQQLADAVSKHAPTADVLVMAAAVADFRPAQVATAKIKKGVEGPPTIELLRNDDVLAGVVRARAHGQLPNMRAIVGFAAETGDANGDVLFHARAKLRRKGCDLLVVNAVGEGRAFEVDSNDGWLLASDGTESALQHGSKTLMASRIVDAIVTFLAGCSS
UniProt I6X8D2, whole entry: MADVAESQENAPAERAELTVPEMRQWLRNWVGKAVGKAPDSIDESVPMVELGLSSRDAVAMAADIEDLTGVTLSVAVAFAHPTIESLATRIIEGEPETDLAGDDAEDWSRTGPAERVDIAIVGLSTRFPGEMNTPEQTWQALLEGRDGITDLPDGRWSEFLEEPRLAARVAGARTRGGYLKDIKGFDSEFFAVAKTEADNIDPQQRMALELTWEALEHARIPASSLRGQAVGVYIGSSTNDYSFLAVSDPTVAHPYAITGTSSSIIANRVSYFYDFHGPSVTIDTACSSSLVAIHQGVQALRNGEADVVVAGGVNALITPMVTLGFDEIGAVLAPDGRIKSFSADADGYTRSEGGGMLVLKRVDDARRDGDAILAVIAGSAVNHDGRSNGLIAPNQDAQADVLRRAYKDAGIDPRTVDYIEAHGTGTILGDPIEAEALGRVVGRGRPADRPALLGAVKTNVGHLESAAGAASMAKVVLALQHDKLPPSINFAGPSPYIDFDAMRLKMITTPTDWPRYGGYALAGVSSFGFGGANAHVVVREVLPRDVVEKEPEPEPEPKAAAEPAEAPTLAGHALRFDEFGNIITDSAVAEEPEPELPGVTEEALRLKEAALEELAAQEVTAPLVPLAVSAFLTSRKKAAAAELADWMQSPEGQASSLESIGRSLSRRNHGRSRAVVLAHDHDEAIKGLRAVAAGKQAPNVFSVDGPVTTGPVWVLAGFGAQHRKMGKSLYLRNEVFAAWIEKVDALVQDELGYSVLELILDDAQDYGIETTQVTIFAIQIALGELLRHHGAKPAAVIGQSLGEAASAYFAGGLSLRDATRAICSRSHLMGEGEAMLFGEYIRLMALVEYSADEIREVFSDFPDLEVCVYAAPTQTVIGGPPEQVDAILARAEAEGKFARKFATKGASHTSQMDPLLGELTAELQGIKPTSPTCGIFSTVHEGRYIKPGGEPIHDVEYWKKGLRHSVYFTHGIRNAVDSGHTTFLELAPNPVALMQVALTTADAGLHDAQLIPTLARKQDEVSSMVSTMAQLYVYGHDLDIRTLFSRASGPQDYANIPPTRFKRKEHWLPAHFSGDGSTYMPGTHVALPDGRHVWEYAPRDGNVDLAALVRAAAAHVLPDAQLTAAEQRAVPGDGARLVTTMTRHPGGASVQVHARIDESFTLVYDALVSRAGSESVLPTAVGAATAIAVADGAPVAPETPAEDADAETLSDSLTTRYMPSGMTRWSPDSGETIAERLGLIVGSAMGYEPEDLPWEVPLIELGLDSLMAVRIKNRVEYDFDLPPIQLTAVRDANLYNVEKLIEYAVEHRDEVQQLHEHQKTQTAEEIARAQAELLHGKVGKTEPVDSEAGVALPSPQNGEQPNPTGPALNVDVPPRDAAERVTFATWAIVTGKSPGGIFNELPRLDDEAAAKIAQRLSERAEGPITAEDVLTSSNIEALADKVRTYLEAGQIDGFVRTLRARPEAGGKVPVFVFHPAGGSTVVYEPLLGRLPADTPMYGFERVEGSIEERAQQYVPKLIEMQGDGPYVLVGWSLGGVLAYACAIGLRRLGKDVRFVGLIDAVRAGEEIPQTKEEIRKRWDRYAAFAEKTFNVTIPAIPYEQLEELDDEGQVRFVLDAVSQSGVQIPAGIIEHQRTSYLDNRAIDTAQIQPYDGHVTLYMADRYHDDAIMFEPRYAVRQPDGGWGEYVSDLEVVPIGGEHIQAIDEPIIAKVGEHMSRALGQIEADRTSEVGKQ
UniProt P9WPC5, whole entry: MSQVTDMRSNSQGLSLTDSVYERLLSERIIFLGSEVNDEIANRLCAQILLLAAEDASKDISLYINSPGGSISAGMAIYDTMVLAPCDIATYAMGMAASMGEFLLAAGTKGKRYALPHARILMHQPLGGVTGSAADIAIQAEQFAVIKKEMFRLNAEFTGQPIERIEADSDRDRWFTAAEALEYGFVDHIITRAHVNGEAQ
UniProt P9WPC3, whole entry partner: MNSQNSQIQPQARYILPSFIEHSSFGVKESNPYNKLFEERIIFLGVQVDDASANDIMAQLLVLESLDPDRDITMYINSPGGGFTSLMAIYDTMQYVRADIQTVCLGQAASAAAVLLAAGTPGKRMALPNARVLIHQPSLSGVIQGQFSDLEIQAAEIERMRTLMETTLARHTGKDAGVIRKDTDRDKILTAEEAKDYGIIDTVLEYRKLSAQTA
UniProt A4I591, 1-473: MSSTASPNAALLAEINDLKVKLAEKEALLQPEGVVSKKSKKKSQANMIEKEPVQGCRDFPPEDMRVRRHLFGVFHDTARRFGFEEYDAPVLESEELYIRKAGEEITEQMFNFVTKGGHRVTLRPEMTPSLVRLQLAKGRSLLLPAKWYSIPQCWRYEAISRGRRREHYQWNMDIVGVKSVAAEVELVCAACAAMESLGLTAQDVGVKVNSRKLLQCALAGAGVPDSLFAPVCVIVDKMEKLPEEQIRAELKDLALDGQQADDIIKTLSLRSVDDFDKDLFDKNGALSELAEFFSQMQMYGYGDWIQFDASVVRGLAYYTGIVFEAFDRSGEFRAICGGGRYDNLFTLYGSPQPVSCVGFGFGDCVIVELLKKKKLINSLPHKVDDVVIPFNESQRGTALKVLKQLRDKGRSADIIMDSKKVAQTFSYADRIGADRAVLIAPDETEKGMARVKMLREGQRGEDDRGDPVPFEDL
UniProt P9WFT3, whole entry: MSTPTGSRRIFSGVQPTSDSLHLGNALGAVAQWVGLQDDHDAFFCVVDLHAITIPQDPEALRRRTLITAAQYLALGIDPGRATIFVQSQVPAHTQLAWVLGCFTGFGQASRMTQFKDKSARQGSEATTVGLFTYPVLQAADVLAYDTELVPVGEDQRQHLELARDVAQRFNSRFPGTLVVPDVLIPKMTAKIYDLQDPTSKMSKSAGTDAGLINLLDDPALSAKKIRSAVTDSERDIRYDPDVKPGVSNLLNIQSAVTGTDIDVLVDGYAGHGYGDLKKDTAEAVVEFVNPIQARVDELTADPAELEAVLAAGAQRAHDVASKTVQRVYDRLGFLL

CoaBC: 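Coenzyme A biosynthesis protein CoaBC, Mycobacterium tuberculosis (UniProt P9WNZ1). Enzyme assay of CoaBC with a phosphate dye (Biomol Green) read at 650 nm. Compounds at 30 µM. Higher reads as stronger inhibition, judged from the few compounds that gave an IC50. Most strong results did not repeat in a second test. Of about 67,000 compounds tested this way, about 40 (0.06%) reached 50% or more in at least one test.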
Pks13 thioesterase: 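Enzyme assay of the thioesterase domain of polyketide synthase 13; the read-out is not stated. Target: Polyketide synthase Pks13, Mycobacterium tuberculosis (UniProt I6X8D2). Concentration: 30 µM. The record gives no direction; the compounds picked for IC50 retests had high values, so higher reads as stronger inhibition. Of about 67,000 compounds tested this way, about 300 (0.46%) reached 50% or more in at least one test.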
ClpP1P2: 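ClpP1P2, Mycobacterium tuberculosis (UniProt P9WPC5 and UniProt P9WPC3). Protease assay of ClpP1P2, read by the AMC dye that it sets free. Concentration: 50 µM. Higher reads as stronger inhibition, judged from the few compounds that gave an IC50. Most other retested compounds had strongly negative values. Size under these conditions: about 69,000 compounds, about 10 of them at 50% or above in at least one test.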
LiHisRS: 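Histidine-tRNA ligase, Leishmania infantum (UniProt A4I591). Enzyme assay of histidyl-tRNA synthetase; the read-out is not stated. Compounds at 30 µM. Direction is inferred from retests: higher values go with stronger inhibition. The assay is labelled LdHisRS but filed under L. infantum. Size under these conditions: about 69,000 compounds, about 410 of them at 50% or above in at least one test.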
MtTrpRS: 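Enzyme assay of tryptophanyl-tRNA synthetase; the read-out is not stated. Target: Tryptophan-tRNA ligase, Mycobacterium tuberculosis (UniProt P9WFT3). Concentration: 10 µM. Direction is not recorded; retested compounds ran higher, which suggests that high means inhibition. Of about 65,000 compounds tested this way, about 64 (0.098%) reached 50% or more in at least one test.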

Each number is a percent effect as filed.
The controls that fix the scale are not given in the record; negative values are as filed.
The compounds are a random part of those screened.

{"structure": "CCc1nc(CN2CCCC(N(C)CCn3cncn3)C2)no1", "stereo": "centres undefined", "CoaBC": 4.121, "Pks13 thioesterase": -7.406, "ClpP1P2": 8.447, "LiHisRS": 15.62, "MtTrpRS": 9.56}
{"structure": "COCCN1CCC(Nc2c(F)cc(C#N)cc2F)CC1", "CoaBC": -1.148, "Pks13 thioesterase": -23.49, "ClpP1P2": 6.226, "LiHisRS": 12.24, "MtTrpRS": 6.144}
{"structure": "CCn1c(C2CCCN(Cc3ccc(F)cc3Cl)C2)nn(C)c1=O", "stereo": "centres undefined", "CoaBC": -5.15, "Pks13 thioesterase": 16.56, "ClpP1P2": -4.559, "LiHisRS": -3.279, "MtTrpRS": 9.938}
{"structure": "Cc1cc(C(=O)Nc2ccc(OC3CCOCC3)c(C)c2)[nH]n1", "CoaBC": 0, "ClpP1P2": -1.187, "LiHisRS": 10.26, "MtTrpRS": -6.781}
{"structure": "Cn1c(C(N)=O)cc2c1CN(C(=O)C1CC(=O)N(C(C)(C)C)C1)CC2", "stereo": "centres undefined", "CoaBC": 3.2, "Pks13 thioesterase": -2.195, "ClpP1P2": -9.131, "LiHisRS": 5.128, "MtTrpRS": -1.521}
{"structure": "COc1ccc(CC(=O)NC2(C)CCS(=O)(=O)C2)cc1F", "stereo": "centres undefined", "CoaBC": 2.477, "Pks13 thioesterase": -4.553, "ClpP1P2": 6.238, "LiHisRS": 20.27, "MtTrpRS": 0.9291}
{"structure": "CC(=O)N1C[C@H]2CCCC(N3CCN(c4ncccn4)CC3)[C@H]2C1", "stereo": "some centres undefined", "CoaBC": -3.257, "Pks13 thioesterase": 35.55, "ClpP1P2": 7.58, "LiHisRS": -8.571, "MtTrpRS": 4.231}
{"structure": "CC(=O)N1CCC(N2CCOC[C@H]2c2nc(-c3ccccc3)c[nH]2)CC1", "CoaBC": 0.6623, "Pks13 thioesterase": -25.1, "ClpP1P2": -4.971, "LiHisRS": 17.57, "MtTrpRS": 1.745}
{"structure": "Cc1nn(-c2ccccc2)c(C)c1CNC1CCc2ncnn2C1", "stereo": "centres undefined", "CoaBC": -0.5181, "Pks13 thioesterase": -12.13, "ClpP1P2": 9.644, "LiHisRS": -29.79, "MtTrpRS": -0.07424}
{"structure": "CCN(CC)C(=O)CN(C)C(=O)c1cc(-c2cccc(Cl)c2)no1", "CoaBC": 3.241, "Pks13 thioesterase": -24.53, "ClpP1P2": 4.572, "LiHisRS": 4.762, "MtTrpRS": 2.999}
{"structure": "COCCSCC(=O)NCc1ccc(N(C)C)nc1", "CoaBC": 3.893, "Pks13 thioesterase": -16.39, "ClpP1P2": -3.604, "LiHisRS": 1.429, "MtTrpRS": 2.166}
{"structure": "NC1CCCN(C(=O)c2csc(-c3ccc(C(F)(F)F)cc3)n2)CC1", "stereo": "centres undefined", "CoaBC": 1.794, "Pks13 thioesterase": 5.398, "ClpP1P2": 15.69, "LiHisRS": 9.836, "MtTrpRS": -2.807}
{"structure": "Cn1ccnc1CN1CCC2(CC1)CC(NC(=O)c1ccccn1)CO2", "stereo": "centres undefined", "CoaBC": 4.436, "Pks13 thioesterase": -2.811, "ClpP1P2": 3.105, "LiHisRS": 12.62, "MtTrpRS": -3.197}
{"structure": "CCc1ccc(C(C)NC(=O)c2ccc(CS(C)(=O)=O)o2)cc1", "stereo": "centres undefined", "CoaBC": 1.582, "Pks13 thioesterase": -30.54, "ClpP1P2": -2.352, "LiHisRS": 27.27, "MtTrpRS": 2.414}
{"structure": "N#Cc1c(N2CCN(CC3CCOC3)CC2)nc2ccccn12", "stereo": "centres undefined", "CoaBC": -0.4274, "Pks13 thioesterase": 5.836, "ClpP1P2": -19.8, "LiHisRS": 5.128, "MtTrpRS": -2.498}
{"structure": "Cn1cc(-c2nc(CNCCn3cccn3)cs2)cn1", "CoaBC": 0, "Pks13 thioesterase": -2.101, "ClpP1P2": 31.35, "LiHisRS": 2.128, "MtTrpRS": -5.271}
{"structure": "CC(=O)Nc1nc(C(=O)N2CCCC(n3ccnc3C)C2)cs1", "stereo": "centres undefined", "CoaBC": 2.216, "Pks13 thioesterase": -7.342, "ClpP1P2": -19.22, "LiHisRS": 4.386, "MtTrpRS": -6.187}
{"structure": "CC1=C(C#N)C(=O)NC(=O)/C1=C\\c1c(C)nn(-c2ccc(C)cc2)c1O", "CoaBC": -0.1227, "Pks13 thioesterase": 29.95, "ClpP1P2": 9.141, "LiHisRS": 70.1}
{"structure": "Nc1nc(CN2CCOC(Cn3cccn3)C2)nc2ccccc12", "stereo": "centres undefined", "CoaBC": 2.872, "Pks13 thioesterase": -11.66, "ClpP1P2": -57.31, "LiHisRS": 18.58, "MtTrpRS": 0.3762}
{"structure": "Cc1cc2c(=O)n(CCSc3cnn[nH]3)cnc2s1", "CoaBC": 8.395, "Pks13 thioesterase": -144.5, "ClpP1P2": -14.62, "LiHisRS": 8.392, "MtTrpRS": 0.6265}
{"structure": "COCCn1ccc(NCc2cc3cc(F)ccc3o2)n1", "CoaBC": -3.133, "Pks13 thioesterase": 6.968, "ClpP1P2": -8.158, "LiHisRS": 18.68, "MtTrpRS": 1.1}
{"structure": "COc1ccc(C(=O)N(C)Cc2c(C)noc2C)cn1", "CoaBC": -2.216, "Pks13 thioesterase": -9.032, "ClpP1P2": -3.41, "LiHisRS": 13.16, "MtTrpRS": -0.6482}
{"structure": "Cc1cc(C(=O)NS(=O)(=O)Cc2ccon2)c(C)o1", "CoaBC": 0.7371, "ClpP1P2": -11.22, "LiHisRS": 15.08, "MtTrpRS": 3.062}
{"structure": "Cn1ccc(C(=O)N2C[C@@H]3OCCN(c4ncccn4)[C@@H]3C2)n1", "CoaBC": 1.85, "Pks13 thioesterase": -19.12, "ClpP1P2": -20.51, "LiHisRS": 1.389, "MtTrpRS": -4.167}

The last 3 entries again:

{"structure": "COc1ccc(C(=O)N(C)Cc2c(C)noc2C)cn1", "CoaBC": -2.216, "Pks13 thioesterase": -9.032, "ClpP1P2": -3.41, "LiHisRS": 13.16, "MtTrpRS": -0.6482}
{"structure": "Cc1cc(C(=O)NS(=O)(=O)Cc2ccon2)c(C)o1", "CoaBC": 0.7371, "ClpP1P2": -11.22, "LiHisRS": 15.08, "MtTrpRS": 3.062}
{"structure": "Cn1ccc(C(=O)N2C[C@@H]3OCCN(c4ncccn4)[C@@H]3C2)n1", "CoaBC": 1.85, "Pks13 thioesterase": -19.12, "ClpP1P2": -20.51, "LiHisRS": 1.389, "MtTrpRS": -4.167}

The values are deposited in ChEMBL (CHEMBL3988442, “University of Dundee, Small-Polar-MMV Screening Library” (2021)).